Data published in US20120035320A1 (University of Iowa Research Foundation, priority 2010, published 2012).

Experiment: general procedure: Fmoc solid-phase peptide synthesis; Wang resin; HBTU/HOBt double coupling (DIC/HOBt for Cys-Trp-Lysn)
Details: conjugation step

Substance	conjugation yield [%]
PEGyalted-Mal-(Acr-Glu)4	35
PEGyalted-Mal-(Acr-Leu)4	46
Man9-L^3-(Acr-Lys)n	23
PEGylated-Mal-(Acr-Lys)2	64
PEGylated-Mal-(Acr-Lys)4	55
PEGylated-Mal-(Acr-Arg)4	53
PEGyalted-Mal-(Acr-Lys)6	66
PEPTIDE1{[Acr].R.[Acr].R.[Acr].R.[Acr].R.C}|PEPTIDE2{[MalGly].W.K.K.G.I.G.A.V.L.K.V.L.T.T.G.L.P.A.L.I.S.L.I.K.R.K.R.Q.Q}$PEPTIDE1,PEPTIDE2,9:R3-1:R3$$$V2.0	35
PEGyalted-SS-(Acr-Arg)4 (KRKRKRKR; 5 kDa PEG disulfide; acridine-modified residues)	44

Same assay, conditions: conjugation step, Abs 280 nm

Substance	final HPLC purity [%]
Man9-L^3-(Acr-Lys)n	>95

Same assay, conditions: conjugation step, analytical RP-HPLC with ESI-MS detection (LC-MS)

Substance	final LC-MS purity [%]
PEPTIDE1{[Acr].R.[Acr].R.[Acr].R.[Acr].R.C}|PEPTIDE2{[MalGly].W.K.K.G.I.G.A.V.L.K.V.L.T.T.G.L.P.A.L.I.S.L.I.K.R.K.R.Q.Q}$PEPTIDE1,PEPTIDE2,9:R3-1:R3$$$V2.0	>95

Same assay, conditions: whole synthesis, analytical RP-HPLC with ESI-MS detection (LC-MS), scale 30 μmol

Substance	final LC-MS purity [%]
Cys-(Acr-Lys)4	>95

Same assay, conditions: whole synthesis, scale 30 μmol

Substance	isolated yield [%]
Cys-(Acr-Lys)4	17

Same assay, conditions: whole synthesis, scale of the general procedure 30 μmol

Substance	isolated yield [%]
(Acr-Arg)4-Cys (KRKRKRKRC; acridine on Lys side chains)	30
(Acr-Glu)4-Cys	22
(Acr-Leu)4-Cys	31
(Acr-Lys)2-Cys	37
(Acr-Lys)4-Cys	26
(Acr-Lys)6-Cys	20

One purity is given for all peptides; the source may state it once. Strings that start with PEPTIDE1 are HELM notation: dots part the residues, brackets hold end groups and non-standard residues.
